Data from article PMC12967509.
These are yes or no findings as the source states them, for the method shown. Binding seen in cells or lysates may run through a third protein. Some entries that bind do so weakly or less than the wild type. Where a sequence is shown, tags or fusion partners need not be part of it.

T1: EGFP-fused IFT38 (UniProt Q96AJ1)
T1 sequence: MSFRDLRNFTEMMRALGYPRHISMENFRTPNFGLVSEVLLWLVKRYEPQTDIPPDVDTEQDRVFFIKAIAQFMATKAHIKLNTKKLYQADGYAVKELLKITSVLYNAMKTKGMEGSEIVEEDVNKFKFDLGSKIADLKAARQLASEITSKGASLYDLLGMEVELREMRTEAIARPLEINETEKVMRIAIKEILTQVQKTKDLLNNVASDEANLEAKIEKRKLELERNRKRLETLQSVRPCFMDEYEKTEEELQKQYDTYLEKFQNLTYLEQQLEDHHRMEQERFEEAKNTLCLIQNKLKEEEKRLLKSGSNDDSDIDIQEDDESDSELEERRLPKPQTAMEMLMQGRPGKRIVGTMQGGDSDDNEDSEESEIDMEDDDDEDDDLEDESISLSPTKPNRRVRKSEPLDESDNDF

T2: EGFP-fused IFT52 (UniProt Q9Y366)
T2 sequence: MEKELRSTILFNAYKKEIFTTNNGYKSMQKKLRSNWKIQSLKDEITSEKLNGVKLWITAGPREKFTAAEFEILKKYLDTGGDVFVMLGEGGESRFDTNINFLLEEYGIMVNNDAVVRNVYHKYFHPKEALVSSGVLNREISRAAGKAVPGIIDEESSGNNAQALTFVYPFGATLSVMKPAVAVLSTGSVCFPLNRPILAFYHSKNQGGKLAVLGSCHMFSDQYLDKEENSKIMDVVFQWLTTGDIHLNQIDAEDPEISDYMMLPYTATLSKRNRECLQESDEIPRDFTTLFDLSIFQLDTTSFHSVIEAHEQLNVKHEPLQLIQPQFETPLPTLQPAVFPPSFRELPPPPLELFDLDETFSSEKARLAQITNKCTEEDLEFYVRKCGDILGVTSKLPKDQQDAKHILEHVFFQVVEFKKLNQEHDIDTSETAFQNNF

T3: EGFP-fused IFT74 (UniProt Q96LB3)
T3 sequence: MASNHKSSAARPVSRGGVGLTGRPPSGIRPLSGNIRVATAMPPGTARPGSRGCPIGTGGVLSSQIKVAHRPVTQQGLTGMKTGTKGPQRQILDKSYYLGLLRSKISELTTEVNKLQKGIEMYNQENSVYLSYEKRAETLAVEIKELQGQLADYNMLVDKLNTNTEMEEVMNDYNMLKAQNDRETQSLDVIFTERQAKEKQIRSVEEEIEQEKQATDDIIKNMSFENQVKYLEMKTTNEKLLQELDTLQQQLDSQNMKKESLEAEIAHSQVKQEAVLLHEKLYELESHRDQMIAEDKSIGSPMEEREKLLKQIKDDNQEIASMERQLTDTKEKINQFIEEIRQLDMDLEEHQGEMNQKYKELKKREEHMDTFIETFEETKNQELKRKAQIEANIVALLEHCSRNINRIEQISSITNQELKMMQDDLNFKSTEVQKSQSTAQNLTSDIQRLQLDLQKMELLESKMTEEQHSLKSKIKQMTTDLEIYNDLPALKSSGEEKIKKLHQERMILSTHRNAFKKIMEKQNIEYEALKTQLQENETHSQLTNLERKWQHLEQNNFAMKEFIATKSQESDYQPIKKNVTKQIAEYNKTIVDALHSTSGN

B1: IFT57 (protein, UniProt Q9NWB7 1-429)
chain: MTAALAVVTTSGLEDGVPRSRGEGTGEVVLERGPGAAYHMFVVMEDLVEKLKLLRYEEEFLRKSNLKAPSRHYFALPTNPGEQFYMFCTLAAWLINKAGRPFEQPQEYDDPNATISNILSELRSFGRTADFPPSKLKSGYGEHVCYVLDCFAEEALKYIGFTWKRPIYPVEELEEESVAEDDAELTLNKVDEEFVEEETDNEENFIDLNVLKAQTYHLDMNETAKQEDILESTTDAAEWSLEVERVLPQLKVTIRTDNKDWRIHVDQMHQHRSGIESALKETKGFLDKLHNEITRTLEKISSREKYINNQLENLVQEYRAAQAQLSEAKERYQQGNGGVTERTRLLSEVMEELEKVKQEMEEKGSSMTDGAPLVKIKQSLTKLKQETVEMDIRIGIVEHTLLQSKLKEKSNMTRNMHATVIPEPATGFY
B2: IFT81 (protein, UniProt Q8WYA0 1-676)
chain: MSDQIKFIMDSLNKEPFRKNYNLITFDSLEPMQLLQVLSDVLAEIDPKQLVDIREEMPEQTAKRMLSLLGILKYKPSGNATDMSTFRQGLVIGSKPVIYPVLHWLLQRTNELKKRAYLARFLIKLEVPSEFLQDETVADTNKQYEELMEAFKTLHKEYEQLKISGFSTAEIRKDISAMEEEKDQLIKRVEHLKKRVETAQNHQWMLKIARQLRVEKEREEYLAQQKQEQKNQLFHAVQRLQRVQNQLKSMRQAAADAKPESLMKRLEEEIKFNLYMVTEKFPKELENKKKELHFLQKVVSEPAMGHSDLLELESKINEINTEINQLIEKKMMRNEPIEGKLSLYRQQASIISRKKEAKAEELQEAKEKLASLEREASVKRNQTREFDGTEVLKGDEFKRYVNKLRSKSTVFKKKHQIIAELKAEFGLLQRTEELLKQRHENIQQQLQTMEEKKGISGYSYTQEELERVSALKSEVDEMKGRTLDDMSEMVKKLYSLVSEKKSALASVIKELRQLRQKYQELTQECDEKKSQYDSCAAGLESNRSKLEQEVRRLREECLQEESRYHYTNCMIKNLEVQLRRATDEMKAYISSDQQEKRKAIREQYTKNTAEQENLGKKLREKQKVIRESHGPNMKQAKMWRDLEQLMECKKQCFLKQQSQTSIGQVIQEGGEDRLIL

How the values were obtained:
Assay in all cases: co-IP; EGFP-fused bait stably expressed in control RPE1 cells and KO cells (KIF3B-KO, IFT38-KO, IFT54-KO, IFT81-KO, IFT88-KO), serum-starved 24 h; lysis buffer 20 mM HEPES-KOH pH 7.4, 100 mM KCl, 5 mM NaCl, 3 mM MgCl2, 1 mM DTT, 10% glycerol, 0.1% Triton X-100; precipitated with GST-tagged anti-GFP Nb on glutathione-Sepharose 4B; endogenous subunits detected by immunoblot
EGFP-fused IFT38 = target: T1, EGFP-fused IFT38
EGFP-fused IFT52 = target: T2, EGFP-fused IFT52
EGFP-fused IFT74 = target: T3, EGFP-fused IFT74

| Binder | binding (EGFP-fused IFT38) | binding (EGFP-fused IFT52) | binding (EGFP-fused IFT74) |
| --- | --- | --- | --- |
| B1 | binds | – | – |
| B2 | – | binds | binds |
